# Laboratory results as given in PubChem BioAssay AID2685 (National Center for Advancing Translational Sciences (NCATS), 2010).
# The list shows a part of the results. Shown are side measurements of this screen, not its main read-out; they come without a call. Compounds called inactive in the main read-out are mostly missing here. Potencies come from curve fits of mixed quality, noted in brackets.
# Assay: qHTS Assay for Lipid Storage Modulators in Drosophila S3 Cells;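 on cell number change: cells counted by Cell Tracker Red CMTPX staining in the red channel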
# Conditions: BODIPY lipid droplet fluorescence, 18-24 h; for cell number change: measured here: cell count max response, cells fed with added oleic acid
# Outline: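 Drosophila S3 cells loaded with oleic acid (400 uM, as added) and compounds at several concentrations; lipid droplets imaged by 488-nm laser-scanning cytometry, 500–530 nm intensity and object ratio to cell channel. Percent activity normalized to 20 uM Triacsin C.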
# [1] = measured here: cell number channel AC50, cells fed with added oleic acid
# [2] = measured here: lipid fluorescence (Fed channel) AC50, cells fed with added oleic acid
SMILES,AC50 [1],AC50 [2],cell number change [%]
C=CCNc1oc(-c2ccco2)nc1S(=O)(=O)c1ccccc1,"5.8 µM [falling, single point]","29.1 µM [falling, single point]",
Cc1cc(NC(=O)CSCc2ccccc2C)no1,"7.31 µM [falling, single point]","3.66 µM [falling, partial curve]",7.63
CN1CCN(c2ccc(Cl)cc2NC(=O)/C=C/c2ccc(F)cc2)CC1,"0.58 µM [rising, partial curve]","4.11 µM [rising, single point]",
CN1CCN(c2nc3nonc3nc2N2CCN(C)CC2)CC1,"4.11 µM [falling, full curve]","18.4 µM [falling, single point]",-33.2
Cc1c(Cl)cccc1NC(=O)CNc1cccc(S(=O)(=O)N(C)C)c1,,,15.3
O=C(O)[C@@H]1CCCN1C(=O)CCc1c[nH]c2ccccc12,,,-9.33
Cc1ncoc1C(=O)N1CCCC(C(=O)c2ccc(C(F)(F)F)cc2)C1 (centres undefined),,,-6.43
COc1cccc(CN2CC(C(=O)NC3(c4ccccc4)CC3)CCC2=O)c1 (centres undefined),"0.0058 µM [rising, full curve, poor fit]",,27.5
O=C(O)c1ccc(/C=C/C(=O)c2ccc3c(c2)OCCCO3)cc1,,"0.116 µM [falling, single point]",17.9
CC1CCc2c(nc3ncnn3c2N2CC(C)OC(C)C2)C1 (centres undefined),,"5.8 µM [falling, single point]",-3.47
COC(=O)c1ccc(C(=O)OC)c(NC(=O)COC(=O)C2CCCCC2)c1,"0.116 µM [rising, full curve, poor fit]",,33.4
CCOC(=O)C1C(=O)NC(N2CCCCC2)=NC1c1ccccc1 (centres undefined),,,0.859
O=C(NCc1ccco1)c1cnn2cccnc12,"29.1 µM [falling, single point]",,-39
Cc1cc(C)cc(NC(=O)Nc2ccccc2N2CCCCC2)c1,,"29.1 µM [falling, single point]",-26.8
CCN1CCc2c(OCC(=O)N3CCc4ccccc43)cccc2C1=O,,,53.2
CC(O)CNc1nc2c(c(=O)n(C)c(=O)n2C)n1C/C=C/c1ccccc1 (centres undefined),,"29.1 µM [falling, single point]",-22.2

# Full records from above.
# O=C(O)[C@@H]1CCCN1C(=O)CCc1c[nH]c2ccccc12 is listed as cell number change [%]: -9.33
# CCOC(=O)C1C(=O)NC(N2CCCCC2)=NC1c1ccccc1 (centres undefined) is listed as cell number change [%]: 0.859

# (further entries)

SMILES,AC50 [1],AC50 [2],cell number change [%]
CC1(C)CC(=O)C(C=Nc2ccc(NC3=C(C#N)C(=O)CC(C)(C)C3)cc2)=C(O)C1,"29.1 µM [rising, single point]",,65
Cc1ccc(O)c(C(=O)c2cnn(-c3ccc(S(=O)(=O)N4CCOCC4)cc3[N+](=O)[O-])c2)c1,"6.51 µM [rising, partial curve, poor fit]",,9.26
O=C(NCCCN1CCCC1)Nc1ccccc1[N+](=O)[O-],"0.651 µM [rising, single point]",,11.7
CCN(CC)CCCNc1nc2ccccc2[nH]1,"25.9 µM [falling, partial curve]","3.66 µM [falling, full curve]",-93.3
COc1cccc2c(=O)cc(C)n(CC(=O)Nc3ccc(C)c(C)c3)c12,,"11.6 µM [falling, single point]",-90
O=C(COc1ccc2ccccc2c1)NNC(=O)[C@@H]1CCCC[C@@H]1C(=O)O,,"29.1 µM [falling, single point]",22.5
Cc1ccc(-c2cc(C(=O)N3CCOCC3)c3ccccc3n2)cc1,"8.2 µM [rising, partial curve]","6.51 µM [rising, single point]",49.7
Cc1ccc2cc(C)c(N3CCN(c4ccccn4)CC3)nc2c1,,"0.58 µM [rising, full curve]",-5.69
O=C(NCc1csc(-c2ccccc2)n1)c1ccco1,,"29.1 µM [falling, single point]",6.49
O=C(c1ccc([N+](=O)[O-])cc1)N(Cc1ccc(Cl)cc1)N1C(=O)CCCC1=O,,"4.11 µM [rising, full curve, poor fit]",14.9
CC1(C)CC(=O)C(C=NCCCN2CCOCC2)=C(O)C1,"5.17 µM [falling, full curve]","0.82 µM [falling, full curve]",-30.7
Cc1ccccc1Cn1nc(C)c(NC(=O)c2sc3ccccc3c2Cl)c1C,,,4.9
CN1CCN(c2ccc(S(=O)(=O)N3CCCCC3)cc2NC(=O)c2ccc(F)cc2F)CC1,,,-0.833
Cc1ccc(NC(=O)COc2ccc(N3CC(C(N)=O)CC3=O)cc2)c(C)c1 (centres undefined),,,20.4
CCOc1ccc(C(=O)C(C)OC(=O)Cn2c(C)csc2=O)cc1 (centres undefined),"20.6 µM [rising, single point]",,36.9
